Measurements from publication PMC4831024.
No constants are given. Whether binding was seen depends on the method and setting. Binding seen in cells or lysates may run through a third protein. Some binding calls cover weakened binding; strength is not graded here. Sequences can lack the tags named with a protein.

Sequences of proteins named here, by UniProt entry; tags and fusion partners are left off.
UniProt P13010: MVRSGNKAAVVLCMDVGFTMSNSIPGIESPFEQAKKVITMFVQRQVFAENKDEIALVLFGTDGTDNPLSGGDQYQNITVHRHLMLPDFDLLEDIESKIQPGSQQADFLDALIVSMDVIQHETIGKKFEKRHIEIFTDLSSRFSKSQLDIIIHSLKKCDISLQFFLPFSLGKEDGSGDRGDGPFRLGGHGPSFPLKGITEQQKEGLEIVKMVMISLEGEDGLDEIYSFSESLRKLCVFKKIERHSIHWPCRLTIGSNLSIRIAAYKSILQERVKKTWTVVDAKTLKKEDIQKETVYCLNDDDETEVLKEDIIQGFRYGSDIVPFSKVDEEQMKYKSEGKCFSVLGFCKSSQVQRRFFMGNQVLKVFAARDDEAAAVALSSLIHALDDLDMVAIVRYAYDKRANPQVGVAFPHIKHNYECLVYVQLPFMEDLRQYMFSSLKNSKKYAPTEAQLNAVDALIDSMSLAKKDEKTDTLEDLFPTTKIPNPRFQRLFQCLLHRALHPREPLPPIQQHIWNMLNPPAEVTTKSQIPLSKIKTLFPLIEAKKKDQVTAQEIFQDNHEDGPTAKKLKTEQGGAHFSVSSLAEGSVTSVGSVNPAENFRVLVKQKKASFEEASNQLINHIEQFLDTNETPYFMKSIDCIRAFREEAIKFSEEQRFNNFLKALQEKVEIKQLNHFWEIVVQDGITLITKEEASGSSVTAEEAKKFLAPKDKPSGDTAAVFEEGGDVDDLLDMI

Key:
[1] = molecular target: T1, GFP-tagged WRN-cA (C-terminal KBM of WRN) (human); assay: co-IP; GFP-tagged proteins recovered on GFP-TRAP beads from transfected HEK293T extract (25 mM Tris-HCl pH 7.5, 150 mM NaCl, 10% glycerol, 0.5% Triton X-100, 1 mM DTT), 1 h at 4 °C; immunoblot for GFP, Ku80 and DNA–PKcs; Ku quantified by ImageJ relative to wild-type WRN
T1 sequence: TSSAERKRRLPVWFAK

[2] = molecular target: T2, GFP-tagged WRN-X (XLF-like motif of WRN) (human); assay: as above
T2 sequence: SKKLMDKTKRGGLFS

With “Ku80, endogenous (from UniProt P13010 1-732)” the binding [1] was “binds” and the binding [2] was “no binding”.
